Source: PubChem BioAssay AID1224830 (NIAID, 2016)
This is an unselected part of about 18,000 reagents tested. Of all reagents, about 2,900 (16%) were called active. 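Calls are made per well; low scores hint the gene aids the LPS response, high scores that it dampens it.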 Repeated entries: four replicate wells of each siRNA pool.

Purpose: 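Regulators of TLR4 signalling towards TNF-alpha in macrophage-like cells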 (primary screen)
Cell system: human THP-1 monocytic leukaemia cells, TNF dual-luciferase reporter clone, PMA-differentiated to macrophage-like cells
Reagents: siRNA pool against human genes, 50 nM
Timing: LPS for 4 h, given about 3 days after siRNA transfection
Conditions: bacterial LPS (TLR4 ligand), 10 ng/ml
Read-out: 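Ratio of firefly to renilla light, scaled to the plate median and expressed as a robust z-score per replicate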
Scale: TNF reporter robust z-score: higher = stronger TNF reporter response to LPS
Hit rule: 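a well is active when its z-score exceeds 2.8 or falls below -1.5; control wells carry no call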

gene knocked down	TNF reporter robust z-score	Call
CRYBA1 (crystallin beta A1)	-0.05	inactive
CRYBA1 (crystallin beta A1)	0.23	inactive
CRYBA1 (crystallin beta A1)	0.21	inactive
RTL5 (retrotransposon Gag like 5)	-0.39	inactive
RTL5 (retrotransposon Gag like 5)	0.07	inactive
RTL5 (retrotransposon Gag like 5)	-0.06	inactive
RTL5 (retrotransposon Gag like 5)	0.41	inactive
DNAH8 (dynein axonemal heavy chain 8)	-0.79	inactive
DNAH8 (dynein axonemal heavy chain 8)	-0.39	inactive
DNAH8 (dynein axonemal heavy chain 8)	-0.26	inactive
DNAH8 (dynein axonemal heavy chain 8)	0.19	inactive
ELK4 (ETS transcription factor ELK4)	-1.84	active
ELK4 (ETS transcription factor ELK4)	-1.61	active
ELK4 (ETS transcription factor ELK4)	-2	active
ELK4 (ETS transcription factor ELK4)	-2.11	active
SMARCA5 (SNF2 related chromatin remodeling ATPase 5)	0.3	inactive
SMARCA5 (SNF2 related chromatin remodeling ATPase 5)	0.93	inactive
SMARCA5 (SNF2 related chromatin remodeling ATPase 5)	0.48	inactive
SMARCA5 (SNF2 related chromatin remodeling ATPase 5)	0.43	inactive
HES2 (hes family bHLH transcription factor 2)	0.41	inactive
HES2 (hes family bHLH transcription factor 2)	0.31	inactive
HES2 (hes family bHLH transcription factor 2)	-0.42	inactive
HES2 (hes family bHLH transcription factor 2)	-0.62	inactive
RAD1 (RAD1 checkpoint DNA exonuclease)	0.09	inactive
RAD1 (RAD1 checkpoint DNA exonuclease)	0.18	inactive
RAD1 (RAD1 checkpoint DNA exonuclease)	0.08	inactive
RAD1 (RAD1 checkpoint DNA exonuclease)	2.56	inactive
MYH14 (myosin heavy chain 14)	-0.46	inactive
MYH14 (myosin heavy chain 14)	-0.86	inactive
MYH14 (myosin heavy chain 14)	-0.38	inactive
GPR174 (G protein-coupled receptor 174)	-1.08	inactive
GPR174 (G protein-coupled receptor 174)	-0.66	inactive
GPR174 (G protein-coupled receptor 174)	-0.83	inactive
GPR174 (G protein-coupled receptor 174)	-0.73	inactive
CD83 (CD83 molecule)	-0.19	inactive
CD83 (CD83 molecule)	0.77	inactive
CD83 (CD83 molecule)	-0.62	inactive
CD83 (CD83 molecule)	0.28	inactive
HRNR (hornerin)	-1.49	inactive
HRNR (hornerin)	-1.2	inactive
HRNR (hornerin)	-0.91	inactive
NCK1 (NCK adaptor protein 1)	0.11	inactive
NCK1 (NCK adaptor protein 1)	3.41	active
NCK1 (NCK adaptor protein 1)	0.63	inactive
NCK1 (NCK adaptor protein 1)	3.49	active
ARMH4 (armadillo like helical domain containing 4)	1.11	inactive
ARMH4 (armadillo like helical domain containing 4)	0.55	inactive
ARMH4 (armadillo like helical domain containing 4)	0.81	inactive
ARMH4 (armadillo like helical domain containing 4)	1	inactive
STIM1 (stromal interaction molecule 1)	0.2	inactive
STIM1 (stromal interaction molecule 1)	0.5	inactive
STIM1 (stromal interaction molecule 1)	9.25	active
STIM1 (stromal interaction molecule 1)	2.37	inactive
SPNS1 (SPNS lysolipid transporter 1, lysophospholipid)	2.23	inactive
SPNS1 (SPNS lysolipid transporter 1, lysophospholipid)	0.44	inactive
SPNS1 (SPNS lysolipid transporter 1, lysophospholipid)	-0.19	inactive
SPNS1 (SPNS lysolipid transporter 1, lysophospholipid)	-1.39	inactive
REEP4 (receptor accessory protein 4)	-0.22	inactive
REEP4 (receptor accessory protein 4)	-0.09	inactive
REEP4 (receptor accessory protein 4)	-0.93	inactive
REEP4 (receptor accessory protein 4)	0.44	inactive
PCMT1 (protein-L-isoaspartate (D-aspartate) O-methyltransferase)	1.76	inactive
PCMT1 (protein-L-isoaspartate (D-aspartate) O-methyltransferase)	0.26	inactive
PCMT1 (protein-L-isoaspartate (D-aspartate) O-methyltransferase)	0.09	inactive
PCMT1 (protein-L-isoaspartate (D-aspartate) O-methyltransferase)	1.13	inactive
NUCLEOLIN (nucleolin multifunctional protein)	0.37	inactive
NUCLEOLIN (nucleolin multifunctional protein)	0.94	inactive
NUCLEOLIN (nucleolin multifunctional protein)	1.08	inactive
NUCLEOLIN (nucleolin multifunctional protein)	1.05	inactive
APOL2 (apolipoprotein L2)	-0.28	inactive
APOL2 (apolipoprotein L2)	0.98	inactive
APOL2 (apolipoprotein L2)	1.51	inactive
C16orf78 (chromosome 16 open reading frame 78)	0.22	inactive
C16orf78 (chromosome 16 open reading frame 78)	-0.12	inactive
C16orf78 (chromosome 16 open reading frame 78)	1.02	inactive
C16orf78 (chromosome 16 open reading frame 78)	0.52	inactive
ROR1 (ROR family WNT receptor 1)	-1.26	inactive
ROR1 (ROR family WNT receptor 1)	0.6	inactive
ROR1 (ROR family WNT receptor 1)	-0.68	inactive
ROR1 (ROR family WNT receptor 1)	-0.51	inactive
GBGT1	-0.69	inactive
GBGT1	0.43	inactive
GBGT1	-1.07	inactive
GBGT1	0.3	inactive
OPTC (opticin)	0.54	inactive
OPTC (opticin)	-0.05	inactive
OPTC (opticin)	-1.1	inactive
OPTC (opticin)	-1.29	inactive
ERICH1 (glutamate rich 1)	-1.07	inactive
ERICH1 (glutamate rich 1)	1.11	inactive
ERICH1 (glutamate rich 1)	-0.04	inactive
ERICH1 (glutamate rich 1)	-0.23	inactive
SNTN (sentan, cilia apical structure protein)	-0.45	inactive
SNTN (sentan, cilia apical structure protein)	-1.07	inactive
SNTN (sentan, cilia apical structure protein)	-0.77	inactive
SNTN (sentan, cilia apical structure protein)	0.68	inactive
KNL1 (kinetochore scaffold 1)	-0.85	inactive
KNL1 (kinetochore scaffold 1)	-0.08	inactive
KNL1 (kinetochore scaffold 1)	-0.4	inactive
KNL1 (kinetochore scaffold 1)	2.79	inactive
TBX15 (T-box transcription factor 15)	0.01	inactive
TBX15 (T-box transcription factor 15)	1.29	inactive
TBX15 (T-box transcription factor 15)	0.65	inactive
TSC22D1 (TSC22 domain family member 1)	-0.3	inactive
TSC22D1 (TSC22 domain family member 1)	-0.2	inactive
TSC22D1 (TSC22 domain family member 1)	0.84	inactive
TSC22D1 (TSC22 domain family member 1)	-0.03	inactive
GLRX2 (glutaredoxin 2)	-0.28	inactive
GLRX2 (glutaredoxin 2)	0.55	inactive
GLRX2 (glutaredoxin 2)	-0.22	inactive
GLRX2 (glutaredoxin 2)	0.29	inactive
